The conditions of the series: octanol/water.

SMILES strings stand for the structures.

`COC(=O)C1=C(C)NC(C)=C(C(=O)OC)C1c1ccccc1[N+](=O)[O-]` [NIFEDIPINE]: the Partition coefficient is listed as 3000.

Values taken from ChEMBL document CHEMBL1125846, “Reevaluating equilibrium and kinetic binding parameters for lipophilic drugs based on a structural model for drug interaction with biological membranes” (J Med Chem, 1991).
